Results taken from publication PMC3794912.
No constants are given. Whether binding was seen depends on the method and setting. Binding seen in cells or lysates may run through a third protein. Some entries that bind do so weakly or less than the wild type.

Protein sequences, listed by entry. Tags and fused reporters are not part of them.
UniProt P11632: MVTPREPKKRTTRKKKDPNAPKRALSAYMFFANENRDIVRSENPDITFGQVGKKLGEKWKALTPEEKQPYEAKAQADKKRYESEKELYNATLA
UniProt P43588: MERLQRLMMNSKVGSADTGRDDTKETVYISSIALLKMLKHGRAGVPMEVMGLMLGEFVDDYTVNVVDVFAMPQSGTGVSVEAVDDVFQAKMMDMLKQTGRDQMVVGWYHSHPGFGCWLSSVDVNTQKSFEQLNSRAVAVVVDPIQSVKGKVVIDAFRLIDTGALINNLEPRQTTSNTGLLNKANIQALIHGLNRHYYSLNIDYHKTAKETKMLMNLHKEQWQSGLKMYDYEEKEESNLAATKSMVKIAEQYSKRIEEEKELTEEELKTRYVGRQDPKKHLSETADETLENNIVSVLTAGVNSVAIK
UniProt P02294: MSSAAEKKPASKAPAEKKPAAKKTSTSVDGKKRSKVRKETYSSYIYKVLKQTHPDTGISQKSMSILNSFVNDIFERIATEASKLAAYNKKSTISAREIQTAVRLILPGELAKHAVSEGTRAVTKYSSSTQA

Columns and labels:
[1] = target: Nhp6a::F[1,2] (S. cerevisiae) (UniProt P11632); test: split reporter; mDHFR protein-fragment complementation assay (PCA) in living S. cerevisiae; fragments F[1,2] and F[3] fused at the C-termini; read-out growth or colony size on medium with 200 µg/ml methotrexate (serial dilutions, robotic pinning, genome-wide rPCA screens)
[2] = target: Rpn11::F[3] (S. cerevisiae) (UniProt P43588); test: as above

| Molecule | binding [1] | binding [2] |
| --- | --- | --- |
| Htb2::F[1,2] (from UniProt P02294 1-131) | binds |  |
| Rpn5::F[1,2] (protein, UniProt Q12250 1-445) MSRDAPIKADKDYSQILKEEFPKIDSLAQNDCNSALDQLLVLEKKTRQASDLASSKEVLAKIVDLLASRNKWDDLNEQLTLLSKKHGQLKLSIQYMIQKVMEYLKSSKSLDLNTRISVIETIRVVTENKIFVEVERARVTKDLVEIKKEEGKIDEAADILCELQVETYGSMEMSEKIQFILEQMELSILKGDYSQATVLSRKILKKTFKNPKYESLKLEYYNLLVKISLHKREYLEVAQYLQEIYQTDAIKSDEAKWKPVLSHIVYFLVLSPYGNLQNDLIHKIQNDNNLKKLESQESLVKLFTTNELMRWPIVQKTYEPVLNEDDLAFGGEANKHHWEDLQKRVIEHNLRVISEYYSRITLLRLNELLDLTESQTETYISDLVNQGIIYAKVNRPAKIVNFEKPKNSSQLLNEWSHNVDELLEHIETIGHLITKEEIMHGLQAK |  | binds |
